{"source": "patent US12617804B2", "about": "“Conjugation-fused bipolar redox-active molecule, preparation method, and application thereof” (Hangzhou Normal University, priority 2021, dated 2026)", "key": {"[1]": {"assay": "QPT-TEG-based bipolar static flow battery, charge/discharge cycling", "conditions": "0.5 M QPT-TEG", "experimental": "(§1) An acetonitrile mixture of QPT-TEG and TBA-TFSI made in Embodiment 4 is used as cathode and anode electrolytes (where the concentrations of QPT-TEG and TBA-TFSI are 0.5 M and 0.5 M, respectively), and a porous membrane Daramic AA-800 is used as a membrane and graphite carbon is used as a collector to form a static flow battery.\n0.1 mL of electrolyte is injected into both the cathode and anode reservoirs of the battery, and the charge and discharge cycles are tested with a charge current density of 5 mA cm^−1 and a discharge current density of 5 mA cm^−1."}, "[2]": {"assay": "QPT-OMe bipolar static flow battery, polarity reversal test", "conditions": "after 500 cycles", "experimental": "as §1, with “The acetonitrile” for “An acetonitrile”, “of QPT-OMe” for “of QPT-TEG”, “Embodiment 1” for “Embodiment 4”, “are 0.025” for “are 0.5”, “carbon felt” for “carbon”\nA polarity reversal test is performed by filling 0.1 mL of electrolyte into both the cathode and anode reservoirs of the battery with a charging current density of 5 mA cm^−1 and a discharging current density of 5 mA cm^−1. The polarity of the battery is reversed every 50 cycles, and the current is reversed 4 times before 300 cycles."}, "[3]": {"assay": "QPT-OMe-based bipolar static flow battery, charge/discharge cycling", "experimental": "as §1, with “The acetonitrile” for “An acetonitrile”, “of QPT-OMe” for “of QPT-TEG”, “Embodiment 1” for “Embodiment 4”, “are 0.025” for “are 0.5”, “carbon felt” for “carbon”\n0.1 mL of electrolyte is injected into both the cathode and anode reservoirs of the battery, and the charging and discharging cycles are tested with a charging current density of 5 mA cm^−1 and a discharging current density of 5 mA cm^−1."}}, "data": [{"smiles": "COCCOCCOCCOc1ccc2c(c1)c(=O)c1cccc3c1n2-c1ccccc1S3", "note": "[QPT-TEG]", "values": [{"measurement": "utilization of active substance in the first cycle", "setting": "[1]; 5 mA cm^−1", "value": 74.6, "unit": "%"}, {"measurement": "voltage plateau during discharge", "setting": "[1]; 5 mA cm^−1", "value": "about 2.3 V"}, {"measurement": "discharge capacity remained", "setting": "[1]; after 200 cycles", "value": 63, "unit": "%"}]}, {"smiles": "COc1ccc2c(c1)c(=O)c1cccc3c1n2-c1ccccc1S3", "note": "[QPT-OMe]", "values": [{"measurement": "capacity retention", "setting": "[2]", "value": 56, "unit": "%"}, {"measurement": "coulombic efficiency", "setting": "[2]", "value": "approximately 94%"}, {"measurement": "energy efficiency", "setting": "[2]", "value": "~86", "unit": "%"}, {"measurement": "decay rate", "setting": "[3]; 900 cycles, 5 mA cm^−1", "value": "about 0.4 %0 per cycle"}, {"measurement": "capacity retention", "setting": "[3]; after 900 cycles, 5 mA cm^−1", "value": "about 63.5%"}, {"measurement": "coulombic efficiency", "setting": "[3]; after 900 cycles, 5 mA cm^−1", "value": "about 97%"}, {"measurement": "energy efficiency", "setting": "[3]; after 900 cycles, 5 mA cm^−1", "value": "~84", "unit": "%"}, {"measurement": "coulombic efficiency (CE)", "setting": "[3]; current density 1 mA cm^−2", "value": 70.0, "unit": "%"}, {"measurement": "utilization rate", "setting": "[3]; current density 1 mA cm^−2", "value": 77.6, "unit": "%"}, {"measurement": "coulombic efficiency (CE)", "setting": "[3]; current density 2 mA cm^−2", "value": 82.1, "unit": "%"}, {"measurement": "utilization rate", "setting": "[3]; current density 2 mA cm^−2", "value": 86.3, "unit": "%"}, {"measurement": "coulombic efficiency (CE)", "setting": "[3]; current density 5 mA cm^−2", "value": 90.6, "unit": "%"}, {"measurement": "utilization rate", "setting": "[3]; current density 5 mA cm^−2", "value": 94.3, "unit": "%"}, {"measurement": "coulombic efficiency (CE)", "setting": "[3]; current density 10 mA cm^−2", "value": 92.9, "unit": "%"}, {"measurement": "utilization rate", "setting": "[3]; current density 10 mA cm^−2", "value": 97.6, "unit": "%"}, {"measurement": "coulombic efficiency (CE)", "setting": "[3]; current density 20 mA cm^−2", "value": 92.8, "unit": "%"}, {"measurement": "utilization rate", "setting": "[3]; current density 20 mA cm^−2", "value": 65.4, "unit": "%"}]}]}
